Patent publication US7592367B2, “Compounds from Garcinia hanburyi, their use in treating cancer and method of separating epimers thereof” (priority 2005, dated 2009)

System: doxorubicin-resistant K562 (K562/R) cell line
Test: MTT cytotoxicity assay, doxorubicin-resistant K562
Assay type: cell-based, human
Conditions: concluded from similar IC50 against K562/R and K562/S
Experimental: MTT assay was performed using a reported method. […] Absorbance of untreated controls was taken as 100%. […] An aliquot of the supernatant was analyzed by HPLC.

Compound	Multidrug resistance (MDR) substrate status
CC(C)=CCC[C@]1(C)C=Cc2c(O)c3c(c(CC=C(C)C)c2O1)O[C@]12C(=C[C@@H]4C[C@H]1C(C)(C)O[C@@]2(C/C=C(/C)C(=O)O)C4=O)C3=O (single isomer, unassigned) [Epimer 1, gambogic acid]	not multidrug resistance (MDR) substrates
CC(C)=CCCC1(C)C=Cc2c(O)c3c(c(CC=C(C)C)c2O1)OC12C(=CC4CC1C(C)(C)OC2(CC=C(C)C(=O)O)C4=O)C3=O (single isomer, unassigned; epimer 2) [Epimer 2, epigambogic acid]	not multidrug resistance (MDR) substrates
